Experiment [1] addresses T1, YAF9 (S. pombe) (S. pombe) (UniProt Q10319).
T1 sequence: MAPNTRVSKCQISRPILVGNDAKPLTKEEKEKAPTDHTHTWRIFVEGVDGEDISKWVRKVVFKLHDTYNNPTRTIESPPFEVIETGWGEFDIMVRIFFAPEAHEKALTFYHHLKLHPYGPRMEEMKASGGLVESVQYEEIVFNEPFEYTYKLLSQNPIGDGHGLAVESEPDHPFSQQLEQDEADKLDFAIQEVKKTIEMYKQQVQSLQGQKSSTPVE
Put plainly: affinity purification with mass spectrometry; TAP of baits TAP-tagged at their genes from S. pombe extracts; eluates on 6-18% gels, Coomassie, bands and slices identified by MALDI peptide mapping and LC-MS/MS; common background removed, A-index cut-off 1.75.

Another experiment addresses T2, Sp_Alp13p (S. pombe) (UniProt O13953).
T2 sequence: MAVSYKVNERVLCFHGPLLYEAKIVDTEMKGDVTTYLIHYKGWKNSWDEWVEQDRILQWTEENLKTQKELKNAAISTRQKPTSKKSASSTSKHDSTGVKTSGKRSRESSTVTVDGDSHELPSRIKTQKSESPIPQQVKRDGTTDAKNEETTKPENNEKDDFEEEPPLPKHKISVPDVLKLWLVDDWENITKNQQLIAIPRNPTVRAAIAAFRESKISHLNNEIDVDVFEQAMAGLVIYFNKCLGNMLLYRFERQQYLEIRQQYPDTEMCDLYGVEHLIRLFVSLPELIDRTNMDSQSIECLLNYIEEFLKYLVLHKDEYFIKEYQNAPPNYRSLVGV
The experiment is described as above.

The target in a further experiment is T3, Sc_Rpd3p (S. cerevisiae) (UniProt P32561).
T3 sequence: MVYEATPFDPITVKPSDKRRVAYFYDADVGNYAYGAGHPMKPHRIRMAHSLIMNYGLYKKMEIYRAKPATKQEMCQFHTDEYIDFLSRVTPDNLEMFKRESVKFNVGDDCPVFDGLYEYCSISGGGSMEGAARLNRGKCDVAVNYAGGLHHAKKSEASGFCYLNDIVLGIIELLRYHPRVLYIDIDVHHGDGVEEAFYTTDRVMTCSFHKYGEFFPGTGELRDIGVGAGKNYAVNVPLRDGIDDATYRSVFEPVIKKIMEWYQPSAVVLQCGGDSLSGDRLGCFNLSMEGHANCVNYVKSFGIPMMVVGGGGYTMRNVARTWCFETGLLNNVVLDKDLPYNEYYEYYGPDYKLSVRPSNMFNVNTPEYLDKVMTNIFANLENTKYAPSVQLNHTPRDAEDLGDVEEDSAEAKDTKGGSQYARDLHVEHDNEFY
Nature of the experiment: affinity purification with mass spectrometry; TAP of baits TAP-tagged at their genes from S. cerevisiae extracts; eluates on 6-18% gels, Coomassie, bands and slices identified by MALDI peptide mapping and LC-MS/MS; common background removed, A-index cut-off 1.75.

Among the data in article PMC2614481 are binding values, retold here.

These are yes or no findings as the source states them, for the method shown. In cells and extracts the contact can be indirect. A yes stands for co-enrichment or nearness to the bait. Other partners may have been found.

B1: SWC4 (S. pombe) (protein, UniProt O14308 1-437)
chain: MTSADIRDVFELPPPEIGNKQKSKTPTERRPEGISRELYSLLGENSAPLAIYQKKFKEKPKVSHKAKNWVRQPFSISSRKDDFTLHHWVLKSEVDSEASYKFEKFNVPLFIIDYTDEEYQNYLKDEDWNKDETDYLFRLCKDYDLRFFVIADRYDNEKYKKHRTLEDLKDRFYSVSRKILLARNPINSMTAAQSSLLNTMEYNKEQEVIRKKYLIGLASRTPEEVAEEEALFIELKRIETSQAKLLSDRDEVLRLLDEQKGDGGIHEYHTSAGMSSLIQDMINSQRTKNKVEEAIVSSSAPSSGVSSVLNTPTRPHALSTPRIRYGPQPTDPQFGITWHEKLHPGTFVRSQKIPAIKASLSQRVSSVMTELGVSSRLIMPTAKNFEKFVELQNSIVSLLELKRKVDRLSQETEIQDKLSRKRSASPDGSESKKHISQ
Take B1: the binding result (in experiment [1]; in the experiment with Sp_Alp13p (S. pombe)) was “binds” each time.

B2: YAF9 (S. pombe) (protein, UniProt Q10319 1-217)
chain: MAPNTRVSKCQISRPILVGNDAKPLTKEEKEKAPTDHTHTWRIFVEGVDGEDISKWVRKVVFKLHDTYNNPTRTIESPPFEVIETGWGEFDIMVRIFFAPEAHEKALTFYHHLKLHPYGPRMEEMKASGGLVESVQYEEIVFNEPFEYTYKLLSQNPIGDGHGLAVESEPDHPFSQQLEQDEADKLDFAIQEVKKTIEMYKQQVQSLQGQKSSTPVE
Consider B2, for which the binding result in the experiment with Sp_Alp13p (S. pombe) is recorded as “binds”.

B3: ASH1 (S. cerevisiae) (protein, UniProt P34233 1-588)
chain: MSSLYIKTPLHALSAGPDSHANSSYYDNLLLPSFSNLSSNISRNNITTDNNINSASPRKYSFHSLNVSPILSPISLANEILGKKSNTAPASPHHMDYNPISSLTPGNSPEFNKASLSQISFTNPLNYGSGLGFSSNSQPRLPLLDRLSSVSLSKRPERPQQSLPSLRHLQLLPSPLLQENAARFPDTSKRTSNWKTDLTHWCKDTNYQDYVKIREEVAHFKPLSIPNLTNNQNNDSFNYGKELESTRSSKFHSPSKESFDRTKLIPSILEAKDQFKDLSNNAWSITPPVTPPMSPPTNRTMERTTLRGVEASFFEGKSSNNDSIFNPIISEKLVQEVKHQRQLRGNSFPMPNASHKKTNSFKALQIKKLLANRDILSNNSKSNVRKPSKNKISKQASNVFGNTARQLVMKLDNASYSSVSASSSPSPSTPTKSGKMRSRSSSPVRPKAYTPSPRSPNYHRFALDSPPQSPRRSSNSSITKKGSRRSSGSSPTRHTTRVCVSCHSSDSPCWRPSWSPRKQDQLCNSCGLRYKKTHTRCLNDLCRKIPTKGEINIMKSNGIDKEFVPERNCEIEGYRCLFCNYITETVEN
With B3, the binding entry with Sc_Rpd3p (S. cerevisiae) is listed as “binds”.

B4: Sc_Snt2p (protein, UniProt P53127 1-1403)
chain: MPKEEDFQLPRRREAAKNVNYNEMEIDTKLVQQIQIAEKSGAKTKGSNSQTPRNCKRTSNPASRNEKFKYQKFLHDKNTCWNFIPTLPPSFRKNSRFSNILDLDDAMIDLKKMSLFNTESVLLSANDTIYMISEPAGEPYYVGRVVNFVSKPEFSNTIHEAIKTTSVFPAKFFQVRMNWFYRPRDIQEHVNTFNPRLVYASLHQDICPISSYRGKCSIFHKDEVFDVLPNEKECIIRPNIFYFDELFDRYTLKYYKVYSTDKILNKWNSKSPFLYVLNRRFRYIYTEPKYPLENVLKKYVFHELEVNELSPADYQWDKRCQFCKEWCIQKESLSCDECGVCAHLYCMDPPLDRKPNKDVVWTCFSCLQKQQGTKDSHVRFLEEQALELDFIRSVRQKIEEISSKAIKENVGYNTENCWFQYLGIYSISHIGDALNDSMFFPYPFKPSRVGVKYQWNGCNHNVPWRRNSYISANSEEERGSTKTSELAWVLDASKITTRKLSEYIEQCKSEICPILNVRGETCNFIDVVLKNLLFTNYDTAEAFKKCKRELSRKFLKEPSFTAVEIRKFEEAVEKFGSELRPVCEYVGTQPMSMIVRFYYNWKKTERGLTVRGKLSKLSKNKRKKEIANHENDVETKYIDDSSFDTEKLSLAESSFQCMFCKTDYSPMWYRVTGGSDDEKIKIRMQTGVNEKTEISEKSPAHSKKNEKLGALCIRCARMWRRYAIKWVPPLETLRKITGTCQNSFYSAIEGIIEENNTNKFTLSPFQAHNKLLEWELVQDSELIIRQRMKVYKNPNSFVKMKRYSMTFHTQLYKMAVRSYRKNEFHPETMQRDLELFIEDNKEVRKAIPEQKPERAKNTKDEFPVNIIRQSPGTIKTSDTSRNRKCNDVFIEKASNNNIPKITNASNDLIEISIKTGGSSSGSVSVDKGFKFVKFDNKTFQRLRNSLKLVNNKLPKYNEPSTKKIKMINDIALSNPLNEPNGASYNYTVISHSKETSVALEKYHDGNKPSKMLEKDMILKHTKNKPKNPDTAWANNSARTFCSVCKEKFNDNDNYEVVCGNCGLTVHYFCYAIKLPKDMKKNTNLKTFKWLCDPCSNDLNPIISTTYQCSMCPTKDYDYDRYRSQSFKICPDALKCTSLGTWVHLVCSLFNEDIKYGNGQSMQPALNTTAVLIKHSRFTCGVCRINGGGLVKCNKCQYRYHITCAQNSSNFKLMFEKKNMSVDTTLPCIKDVKLNDTYTLRPILICDRHDISLEGNELYPLSYKPQHTLSYIEQYCRYYKCESDHSLVELRYFEQLRLRHGEMPGNSHDSAIKPKIYVLPFERTCPHCGTNKSLYWYEDIICHSCNLRSGAQELDFDSASANISNDNGLPVEITQQLMEGIEPAMFDIDISEAGTDKNTHPSSQ
B4: the binding entry in the experiment with Sc_Rpd3p (S. cerevisiae) is recorded as “binds”.

B5: Clr6p (S. pombe) (protein, UniProt O59702 1-405)
chain: MGFGKKKVSYFYDEDVGNYHYGPQHPMKPHRVRMVHNLVVNYNLYEKLNVITPVRATRNDMTRCHTDEYIEFLWRVTPDTMEKFQPHQLKFNVGDDCPVFDGLYEFCSISAGGSIGAAQELNSGNAEIAINWAGGLHHAKKREASGFCYVNDIALAALELLKYHQRVLYIDIDVHHGDGVEEFFYTTDRVMTCSFHKFGEYFPGTGHIKDTGIGTGKNYAVNVPLRDGIDDESYESVFKPVISHIMQWFRPEAVILQCGTDSLAGDRLGCFNLSMKGHSMCVDFVKSFNLPMICVGGGGYTVRNVARVWTYETGLLAGEELDENLPYNDYLQYYGPDYKLNVLSNNMENHNTRQYLDSITSEIIENLRNLSFAPSVQMHKTPGDFTFENAEKQNIAKEEIMDERV
B5: the binding entry with Sp_Alp13p (S. pombe) is “binds”.

B6: Sc_Dot6p (protein, UniProt P40059 1-670)
chain: MSISTSLNSASIHLSSMDTHPQLHSLTRQPHSSSTAMSKNEAQESSPSLPASSSSSTSASASASSKNSSKNPSSWDPQDDLLLRHLKEVKKMGWKDISQYFPNRTPNACQFRWRRLKSGNLKSNKTALIDINTYTGPLKITHGDETANAQQKPSKKVEENVLTEDTAEFTTTSSIPIPSRKTSLPSFHASMSFSQSPSNVTPTTIVSNAASSMPFAPPTLPAALPHHPHQHLHHHPHHKTLKPRSNSHSFTNSLNQDPIVRSNDEEKYGFIPKVFVRSRRSSFAYPQQVAITTTPSSPNSSHVLLSSKSRRGSLANWSRRSSFNVSSNNTSRRSSMILAPNSVSNIFNVNNSGSNTASTSNTNSRRESVIKKEFQQRLNNLSNSGGPTSNNGPIFPNSYTFMDLPHSSSVSSSSTLHKSKRGSFSGHSMKSSCNPTNLWSKDEDALLMENKKRNLSVMELSILLPQRTEVEIQWRLNALSSDADMLSPTHSPQKTLSKKTCPRMFKSGSTTDDDKGSDKEDVMGDGSNDDDEDNVDPLHRAKQSSNKTVFSSSSSNISSKDVSPDPIFSPDPADDSSNTSDAGSRCTITSDTSSSAATMNRTPNSKNPQDIALLNNFRSEAITPRPKPSSTTTSITTETTNNMINHSSSTTTTTNNSPLPSINTIFKDML
Turning to B6, the binding result with Sc_Rpd3p (S. cerevisiae) is on record as “binds”.

B7: Sc_Tod6p (protein, UniProt P34219 1-525)
chain: MTLPKLSSVSVSSGHVSANSHGFSILSKHPHPNNLVHSHSLSHTNAKSHLPISSTSTKENSTNKEEAESLKKNNPSSWDPSDDIKLRHLKEIKNLGWKEIAHHFPNRTPNACQFRWRRLKSGNLKSNKTAVIDINKLFGVYATGDATPSAGTPSAEEAVKEEAVEDEDITAGSSAIEDSPPDFKPLVKPKYMDRKLITQRSTSTFSDHEPQHTKPRKLFVKPRSFSHSITTNTPNVKTAQQTNLSLYNTTSAKTNKAVNSNDYENIGLVPKIIIRSRRNSFIPSTQIPHSTTKTRKNSHSVISSRRSSFNMMHSRRSSFNSHAPTEPISRRASLVVSPYMSPRRLSTSQSVHYHPQHQYYLNPIASPNCKTDHANDKITHTRTFLDMQKFANKHPWSREDDEVLLNNTKDKQNHLSPLEISIVLPNNRSELEIQQRMDYLKRKGRVSGFHTNEGCKDEEEEDDIDPLHKENGINTPSQQSQNYGMLEAKHDNPKSSELSSMTSANDIRNEQDELPGINSIFKNIF
With B7, in the experiment with Sc_Rpd3p (S. cerevisiae), the binding result is “binds”.
